In patent US20050142581A1, “Microrna as ligands and target molecules” (priority 2003, published 2005):
Some entries share one result that the patent states for a list of compounds. Oligonucleotides are written 5' to 3', each unit as a sugar letter and its base; * is a phosphorothioate linkage, no mark a phosphodiester; rarer units and linkages stand in square brackets, end groups in braces. Plain capitals give the bases only. e = 2'-O-(2-methoxyethyl) (MOE); [5mC] = 5-methylcytosine; d = 2'-deoxy (DNA)

System: human CD40 mRNA
Experiment: Inhibition of CD40 mRNA levels by oligonucleotides (real-time RT-PCR)
Type: cell-based
Settings: phosphorothioate 2′-MOE gapmers, 18 nucleotides (Table 15); averaged from three experiments
Method: When cells reach about 80% confluency, they are treated with oligonucleotide. For cells grown in 96-well plates, wells are washed once with 200 μl Opti-MEM-1 reduced-serum medium (Life Technologies) and then treated with 130 μl of Opti-MEM-1 containing 3.75 μg/ml LIPOFECTIN (Life Technologies) and the desired oligonucleotide at a final concentration of 150 nM. After 4 hours of treatment, the medium was replaced with fresh medium. Cells were harvested 16 hours after oligonucleotide treatment.
Poly(A)+ mRNA was isolated according to Miura et al. (Clin. Chem., 1996, 42, 1758). […]
Quantitation of CD40 mRNA levels was determined by real-time PCR (RT-PCR) using the ABI PRISM 7700 Sequence Detection System (PE-Applied Biosystems, Foster City, Calif.) according to manufacturer's instructions. This is a closed-tube, non-gel-based, fluorescence detection system which allows high-throughput quantitation of polymerase chain reaction (PCR) products in real-time.
As opposed to standard PCR, in which amplification products are quantitated after the PCR is completed, products in RT-PCR are quantitated as they accumulate. […]
With each cycle, additional reporter dye molecules are cleaved from their respective probes, and the fluorescence intensity is monitored at regular (six-second) intervals by laser optics built into the ABI PRISM 7700 Sequence Detection System. […]

Row | Substance | inhibition of CD40 expression
1 | SEQ ID NO:229: 18-nucleotide phosphorothioate 2′-MOE gapmer targeted to human CD40 mRNA (Table 15) (antisense eG*eT*e[5mC]*eG*dG*dG*dA*dA*dA*dA*dT*dT*dG*dA*eT*e[5mC]*eT*e[5mC]) | at least 50%
2 | SEQ ID NO:235: 18-nucleotide phosphorothioate 2′-MOE gapmer targeted to human CD40 mRNA (Table 15) (antisense eT*eG*eG*e[5mC]*dA*dT*dC*dC*dA*dT*dG*dT*dA*dA*eA*eG*eT*e[5mC]) | at least 50%
